The values below come from patent US10633448B2 (PIERRE FABRE MEDICAMENT, priority 2014, dated 2020).

The data set in a line: general procedure: solution-phase peptide synthesis; DEPC/DIEA; HATU/DIEA. The settings on record: late stage modification step, trifluoroacetic acid.

For the substance “((2R,3R)-3-((S)-1-((3R,4S,5S)-4-((S)-2-((S)-2-((4-aminophenethyl)(methyl)amino)-3-methylbutanamido)-N,3-dimethylbutanamido)-3-methoxy-5-methylheptanoyl)pyrrolidin-2-yl)-3-methoxy-2-methylpropanoyl)-L-phenylalanine 2,2,2-trifluoroacetate”, the step yield is reported as 66%.

The substance “(S)-2-((2R,3R)-3-((S)-1-((3R,4S,5S)-4-((S)-2-((S)-2-((3-aminopropyl)(methyl)amino)-3-methylbutanamido)-N,3-dimethylbutanamido)-3-methoxy-5-methylheptanoyl) pyrrolidin-2-yl)-3-methoxy-2-methylpropanamido)-3-phenylpropanoic acid” yielded a step yield of 21%. Moreover, the “final HPLC purity” value (210 nm) worked out at 96.83%.
